What all share (conditions): yeast three-hybrid, YBZ-1, SC-Leu-His + 0.5 mM 3-AT, 4 days
Experiment [1] deals with T1, PUM1 PUF domain R3-ACF C935A + R936C + Q939F (Homo sapiens) (UniProt Q14671).
T1 sequence: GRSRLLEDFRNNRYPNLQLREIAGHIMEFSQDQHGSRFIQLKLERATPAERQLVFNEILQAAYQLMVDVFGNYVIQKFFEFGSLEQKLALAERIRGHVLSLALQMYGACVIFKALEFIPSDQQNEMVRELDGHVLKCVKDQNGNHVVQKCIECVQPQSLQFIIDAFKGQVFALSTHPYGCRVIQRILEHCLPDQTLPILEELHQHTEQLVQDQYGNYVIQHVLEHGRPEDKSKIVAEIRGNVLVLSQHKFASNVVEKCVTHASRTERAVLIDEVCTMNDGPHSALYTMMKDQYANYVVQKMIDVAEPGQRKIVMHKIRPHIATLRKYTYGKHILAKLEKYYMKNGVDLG

Experiment [2] deals with T2, PUM1 PUF domain R3-AKE C935A + R936K + Q939E (Homo sapiens) (UniProt Q14671).
T2 sequence: T1 sequence with C109K, F112E

In experiment [3] the target is T3, PUM1 PUF domain R3-APA C935A + R936P + Q939A (Homo sapiens) (UniProt Q14671).
T3 sequence: T1 sequence with C109P, F112A

The target in experiment [4] is T4, PUM1 PUF domain R3-CNT R936N + Q939T (Homo sapiens) (UniProt Q14671).
T4 sequence: T1 sequence with A108C, C109N, F112T

Experiment [5] addresses T5, PUM1 PUF domain R3-CPG R936P + Q939G (Homo sapiens) (UniProt Q14671).
T5 sequence: T1 sequence with A108C, C109P, F112G

Experiment [6] has as its target T6, PUM1 PUF domain R3-FCA C935F + R936C + Q939A (Homo sapiens) (UniProt Q14671).
T6 sequence: T1 sequence with A108F, F112A

Experiment [7] addresses T7, PUM1 PUF domain R3-FCG C935F + R936C + Q939G (Homo sapiens) (UniProt Q14671).
T7 sequence: T1 sequence with A108F, F112G

In experiment [8] the target is T8, PUM1 PUF domain R3-FSG C935F + R936S + Q939G (Homo sapiens) (UniProt Q14671).
T8 sequence: T1 sequence with A108F, C109S, F112G

Experiment [9] addresses T9, PUM1 PUF domain R3-GPF C935G + R936P + Q939F (Homo sapiens) (UniProt Q14671).
T9 sequence: T1 sequence with A108G, C109P

Experiment [10] deals with T10, PUM1 PUF domain R3-GRY C935G + Q939Y (Homo sapiens) (UniProt Q14671).
T10 sequence: T1 sequence with A108G, C109R, F112Y

In experiment [11] the target is T11, PUM1 PUF domain R3-IRT C935I + Q939T (Homo sapiens) (UniProt Q14671).
T11 sequence: T1 sequence with A108I, C109R, F112T

Experiment [12] deals with T12, PUM1 PUF domain R3-IWL C935I + R936W + Q939L (Homo sapiens) (UniProt Q14671).
T12 sequence: T1 sequence with A108I, C109W, F112L

Experiment [13] deals with T13, PUM1 PUF domain R3-LRE C935L + Q939E (Homo sapiens) (UniProt Q14671).
T13 sequence: T1 sequence with A108L, C109R, F112E

Experiment [14] concerns the target T14, PUM1 PUF domain R3-MCG C935M + R936C + Q939G (Homo sapiens) (UniProt Q14671).
T14 sequence: T1 sequence with A108M, F112G

Experiment [15] has as its target T15, PUM1 PUF domain R3-NAL C935N + R936A + Q939L (Homo sapiens) (UniProt Q14671).
T15 sequence: T1 sequence with A108N, C109A, F112L

Experiment [16] addresses T16, PUM1 PUF domain R3-SCD C935S + R936C + Q939D (Homo sapiens) (UniProt Q14671).
T16 sequence: T1 sequence with A108S, F112D

In experiment [17] the target is T17, PUM1 PUF domain R3-SRW C935S + Q939W (Homo sapiens) (UniProt Q14671).
T17 sequence: T1 sequence with A108S, C109R, F112W

Experiment [18] concerns the target T18, PUM1 PUF domain R3-VNV C935V + R936N + Q939V (Homo sapiens) (UniProt Q14671).
T18 sequence: T1 sequence with A108V, C109N, F112V

In experiment [19] the target is T19, PUM1 PUF domain R3-WCA C935W + R936C + Q939A (Homo sapiens) (UniProt Q14671).
T19 sequence: T1 sequence with A108W, F112A

The target of experiment [20] is T20, PUM1 PUF domain R3-YRQ C935Y (Homo sapiens) (UniProt Q14671).
T20 sequence: T1 sequence with A108Y, C109R, F112Q

Positions count from the first letter of the chain named. The list shows a part of the results.

For “GGCUAGAACUAGUGGAUCCCCCGGCGCCCGGCGGCUCGAGCCCGGGUAAGUGUAAUUAGUCUGCAUGCCGCCGGGCGCCAUGCCUGCAGGUCGACUCUAGAAAACAUG”, the binding signal (log2 enrichment (interaction score)) is -1.12 in experiment [1]; -1.29 in experiment [2]; -0.72 in [3]; -0.96 in experiment [4]; -1.28 in [5]; -0.65 in experiment [6]. Besides, the binding signal (log2 enrichment (interaction score)) in [7] is -1.05; in [8] it was -1.31; in [9], -0.94; in experiment [10] it was -1.26; in [11], -0.76; in [12], -1.43. For the same sequence, the binding signal (log2 enrichment (interaction score)) in experiment [13] is -0.76; in experiment [14] it was -0.58; in experiment [15] it was -0.93; in [16], -1.25; in experiment [17] it was -1.11; in experiment [18], -1.28. The binding signal (log2 enrichment (interaction score)) in experiment [19] was -1.55; in [20] it was -1.39.

These data come from article PMC8384837.
